The source of these data is patent publication US20240051970A1, “COMPOUNDS AND COMPOSITIONS FOR TREATING CONDITIONS ASSOCIATED WITH STING ACTIVITY” (IFM Due, Inc., priority 2020, published 2024).

The chains behind the UniProt entries cited, without tags or fusion partners.
UniProt Q86WV6, whole entry R71H/G230A/H232R/R293Q: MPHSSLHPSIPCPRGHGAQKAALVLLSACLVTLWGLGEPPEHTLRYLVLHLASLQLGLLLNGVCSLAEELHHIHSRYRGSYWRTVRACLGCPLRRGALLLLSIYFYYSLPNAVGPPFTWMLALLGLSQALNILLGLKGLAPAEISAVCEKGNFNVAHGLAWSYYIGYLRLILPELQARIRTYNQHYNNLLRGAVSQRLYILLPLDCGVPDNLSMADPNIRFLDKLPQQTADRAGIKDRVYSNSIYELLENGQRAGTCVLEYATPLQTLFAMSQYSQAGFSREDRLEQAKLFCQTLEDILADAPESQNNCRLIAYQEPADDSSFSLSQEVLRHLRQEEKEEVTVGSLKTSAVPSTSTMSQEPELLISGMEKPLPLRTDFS

pEC50: −log10 of the molar value. The structures given here were assigned with low confidence; some may be wrong.

Broadly, the pEC50 is −log10 of the EC50, conventionally taken in molar units.

The experiment has as its target hSTING (Homo sapiens, UniProt Q86WV6, G230A/H232R/R293Q/R71H). Description: STING reporter assay (luciferase) in THP1-Dual KO-IFNAR2 cells activated with 2'3'cGAMP. Particulars: read-out: hSTING EC50, 15 μM 2'3'cGAMP, 24 h. Here is the method: STING pathway activation by the compounds described herein was measured using THP1-Dual™ cells (KO-IFNAR2).
THP1-Dual™ KO-IFNAR2 Cells (obtained from invivogen) were maintained in RPMI, 10% FCS, 5 ml P/S, 2 mM L-glut, 10 mM Hepes, and 1 mM sodium pyruvate. Compounds were spotted in empty 384 well tissue culture plates (Greiner 781182) by Echo for a final concentration of 0.0017-100 μM. Cells were plated into the TC plates at 40 μL per well, 2×10E6 cells/mL. For activation with STING ligand, 2′3′cGAMP (MW 718.38, obtained from Invivogen), was prepared in Optimem media.
The following solutions were prepared for each 1×384 plate: • Solution A: 2 mL Optimem with one of the following stimuli: • 60 μL of 10 mM 2′3′cGAMP 4 150 μM stock • Solution B: 2 mL Optimem with 60 μL Lipofectamine 2000 4 Incubate 5 min at RT
2 mL of solution A and 2 ml Solution B was mixed and incubated for 20 min at room temperature (RT). […] Luciferase reporter activity was then measured. EC50 values were calculated by using standard methods known in the art.
Luciferase reporter assay: 10 μL of supernatant from the assay was transferred to white 384-plate with flat bottom and squared wells. […] Luminescence was measured on a Platereader (e.g., Spectramax I3X (Molecular Devices GF3637001)).
Luciferase reporter activity was then measured. EC50 values were calculated by using standard methods known in the art.

Take `FC1(F)CC=C(c2ccc3[nH]c(Nc4cc(Cl)c5cc[nH]c5c4)nc3c2)CC1`: the pEC50 is 6.00 to 6.70.
